Data: publication PMC11001723
These are yes or no findings as the source states them, for the method shown. Binding seen in cells or lysates may run through a third protein. These calls come from enrichment with a bait or labelling near it, and not all partners need be listed.

The chains behind the UniProt entries cited, without tags or fusion partners.
UniProt P28741: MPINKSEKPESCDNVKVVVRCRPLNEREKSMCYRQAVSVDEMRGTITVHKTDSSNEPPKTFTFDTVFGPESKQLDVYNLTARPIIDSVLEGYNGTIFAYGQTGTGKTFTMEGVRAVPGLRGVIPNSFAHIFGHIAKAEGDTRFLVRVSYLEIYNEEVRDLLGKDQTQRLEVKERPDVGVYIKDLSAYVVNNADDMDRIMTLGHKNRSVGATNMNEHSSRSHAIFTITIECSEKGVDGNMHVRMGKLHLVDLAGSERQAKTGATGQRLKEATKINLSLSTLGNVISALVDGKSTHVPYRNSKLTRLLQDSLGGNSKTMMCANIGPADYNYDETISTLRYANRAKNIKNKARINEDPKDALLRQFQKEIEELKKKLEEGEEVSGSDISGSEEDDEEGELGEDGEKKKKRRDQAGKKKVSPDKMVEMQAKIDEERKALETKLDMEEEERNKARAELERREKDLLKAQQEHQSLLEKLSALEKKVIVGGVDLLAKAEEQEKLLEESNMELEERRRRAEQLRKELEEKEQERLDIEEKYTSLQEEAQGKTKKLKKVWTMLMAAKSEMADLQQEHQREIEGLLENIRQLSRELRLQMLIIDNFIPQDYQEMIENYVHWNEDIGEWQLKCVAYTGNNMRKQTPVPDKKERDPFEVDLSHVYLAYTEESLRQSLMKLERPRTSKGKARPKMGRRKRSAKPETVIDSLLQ

B1: KIFC1 (protein, UniProt Q9QWT9 1-674)
chain: MDVQAQRPPLLEVKRNVELKAALVKSSSRVPLSASRLKRGPDQMEDALEPAKKRTRVMGAVTKVDTSRPRGPLLSTVSQTQGHTAAQKGPKKTGPRGCSAIGTVLRSQKPVPAAPAQKPGTSTAPVVVGKRAGKRPAWDLKGQLCDLNEELKRYREKTQTLELENRGLREQLREVQEQATTLGTERNTLEGELASVRSRAEQDQQRLETLSARVLELEECLGTRERLLQELQGERLQLQEERSTLSTQLEEQERRFQATEAALSSSQEEVVCLRQKTEAQVTLLAEQGDRLYGLEMERRRLHNQLQELKGNIRVFCRVRPVLEGESTPSPGFLVFPPGPAGPSDPPTGLSLSRSDDRRSTLTGAPAPTVRHDFSFDRVFPPGSKQEEVFEEIAMLVQSALDGYPVCIFAYGQTGSGKTFTMEGGPRGDPQLEGLIPRAMRHLFSVAQEMSGQGWTYSFVASYVEIYNETVRDLLATGPRKGQGGECEIRRASPGSEELTVTNARYVPVSCEKEVEALLHLAHQNRAVAHTAQNKRSSRSHSVFQLQISGEHAARGLQCGAPLNLVDLAGSERLDPGLHLGPGERDRLRETQAINSSLSTLGLVIMALSNKESHVPYRNSKLTYLLQNSLGGSAKMLMFVNISPLEENVSESLNSLRFASKVNQCVIGTAQANKK
B2: CDC37 (protein, UniProt Q61081 1-379)
chain: MVDYSVWDHIEVSDDEDETHPNIDTASLFRWRHQARVERMEQFQKEKEELDRGCRECKRKVAECQRKLKELEVAESDGQVELERLRAEAQQLRKEERSWEQKLEDMRKKEKNMPWNVDTLSKDGFSKSMVNTKPEKAEEDSEEAREQKHKTFVEKYEKQIKHFGMLHRWDDSQKYLSDNVHLVCEETANYLVIWCIDLEVEEKCALMEQVAHQTMVMQFILELAKSLKVDPRACFRQFFTKIKTADHQYMEGFKYELEAFKERVRGRAKLRIEKAMKEYEEEERKKRLGPGGLDPVEVYESLPEELQKCFDVKDVQMLQDAISKMDPTDAKYHMQRCIDSGLWVPNSKSGEAKEGEEAGPGDPLLEAVPKAGNEKDVSA

Biological target: Kinesin family member 3A (mouse (endogenous in ovary)) (UniProt P28741)
Experiment: affinity purification with mass spectrometry; rabbit anti-KIF3A antibody on Dynabeads Protein G, incubated with lysate of 6 mouse ovaries for 6 h at 4 °C; eluate analysed by LC-MS (Mascot search)

Binder	binding
B1	binds
B2	binds
